From patent US20150353614
For some of these results: Tags and fusion partners may be left off the protein sequences shown. For some of these results: For at least one entry, the source does not settle the construct or the ends of the probe.

How the values were obtained:
[1] = test system: IA (Idi-AraC DBD chimera) (Escherichia coli); assay: activity in cells; conditions: no mevalonate, protein in cells, variant of I1I2 in PBAD, only the site is given
[2] = target: T1, AC (AraC linker and DNA-binding domain) (Escherichia coli) (UniProt P0A9E0); assay: activity in cells; conditions: PBAD, no inducer; 0.11 with 10 mM mevalonate; normalized to IA; protein in cells; only the site is given
T1 sequence (looked up, limits assumed): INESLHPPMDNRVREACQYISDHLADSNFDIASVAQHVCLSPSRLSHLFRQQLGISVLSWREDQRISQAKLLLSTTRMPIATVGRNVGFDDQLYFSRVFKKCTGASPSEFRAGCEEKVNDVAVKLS

[3] = test system: IA (Idi-AraC DBD chimera) (Escherichia coli); assay: EMSA; conditions: 0-10 nM IA, 20 nM DNA, 100 mM KCl, pH 7.4, RT; shifted band weaker with 10 uM IPP; purified recombinant protein; label: Cy5

## TAGCGGATCCTACCTGAAGATTAGCGGATCCTACCTGA (double strand) [I2I2 in PBAD]
[1]; 0.11 with 10 mM mevalonate
  activity on this sequence: 0.14 relative RFP

## TAGCATTTTTATCCATAAGATTAGCATTTTTATCCATA (double strand) [I1I1 in PBAD]
[1]; 0.13 with 10 mM mevalonate
  activity on this sequence: 0.1 relative RFP

## TAGCATTTTTATCCATAAGATTAGCGGATCCTACCTGA (double strand) [I1I2 in PBAD]
[2]
  activity on this sequence: 0.19 relative RFP

## TAGCATTTTTATCCATAAGATTAGCGGATCCTACCTGA (double strand) [I1I2]
[3]
  binding result: binds
